Results published in PubChem BioAssay AID1487 (National Center for Advancing Translational Sciences (NCATS), 2009).
The other results are listed elsewhere or left out. These are further read-outs of the screen, such as a control signal, another cell line or another target. No call is given for them. Compounds called inactive in the main read-out are mostly missing here. Words in brackets tell the shape of the fitted curve; partial curves, single points and poor fits give uncertain potencies.

Assay: qHTS Assay for Modulators of Lamin A Splicing
Conditions: HeLa LMNA splicing GFP/RFP minigene ratio, 48 h
Procedure, shortened: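 Read-out is the ratio of GFP to DsRed2 object intensity, acquired by 488 nm laser-scanning cytometry on HeLa lamin A-EGFP minigene reporter cells. Compound incubation 48 hrs at 37 °C in Opti-MEM with 2% FBS; DMSO 0.5% final.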

[1] = measured here: RFP viability control channel
[2] = measured here: GFP splicing reporter channel

Row | SMILES | AC50 [1] | AC50 [2]
1 | CC(=O)NC1=NN(C(C)=O)C(C)(c2ccccc2)S1 (stereo not drawn) | 2.82 µM [rising, full curve, poor fit] | 
2 | Cc1cc([N+](=O)[O-])nn1CCCC(=O)Nc1cc(Oc2ccc(F)cc2)cc([N+](=O)[O-])c1 | 1.41 µM [rising, partial curve] | 
3 | CN1CCN(c2ncc3nc(-c4ccc(Cl)cc4)c(=O)n(-c4ccccc4)c3n2)CC1 | 14.1 µM [falling, partial curve] | 28.2 µM [falling, single point]
4 | O=C(CN1C(=O)CC(c2ccc(F)cc2)=Nc2ccccc21)NCc1ccccc1Cl | 22.4 µM [falling, partial curve] | 35.5 µM [falling, partial curve]
5 | Cc1noc2ncnc(N3CCN(c4cccc(Cl)c4)CC3)c12 | 5.01 µM [rising, partial curve, poor fit] | 
6 | CCCn1c(-c2cccs2)nc2ccccc21 | 0.0355 µM [rising, full curve, poor fit] | 0.0447 µM [rising, full curve, poor fit]
7 | COc1cccc(/C=N/Nc2ncc(C(F)(F)F)cc2Cl)c1O |  | 35.5 µM [rising, single point]
8 | O=S(=O)(c1cccc2nsnc12)N1CCCC1 | 3.55 µM [falling, full curve] | 2.82 µM [falling, full curve]
9 | COc1ccc(-c2csc3ncnc(Cl)c23)cc1 |  | 12.6 µM [falling, partial curve, poor fit]
10 | Cc1cc2c(ncn2C)c(NS(=O)(=O)c2ccc(F)cc2)c1C | 0.562 µM [rising, partial curve, poor fit] | 
11 | CN(C)CCCNC(=O)C(=O)NCC1CCCO1 (stereo not drawn) | 31.6 µM [rising, single point] | 35.5 µM [rising, single point]
12 | COc1ccc(-c2nnn(CC(=O)c3c[nH]c4ccccc34)n2)cc1OC | 31.6 µM [rising, single point] | 
13 | CCOc1ccccc1C(=O)N[C@H](C(=O)Nc1nc2c(s1)CCCC2)C(C)C | 11.2 µM [rising, partial curve] | 10 µM [rising, partial curve]
14 | COc1ccc(CNC(=O)c2cc(-c3ccc(OC)c(OC)c3)on2)cc1 | 35.5 µM [rising, single point] | 
15 | Cc1ccc2cc(CN(Cc3ccco3)C(=O)c3cccs3)c(=O)[nH]c2c1 | 2.82 µM [rising, single point] | 
16 | Cc1ccc(OCC(=O)Nc2ccccc2Sc2ccccc2)c([N+](=O)[O-])n1 | 17.8 µM [rising, single point] | 14.1 µM [rising, single point]
17 | Nc1[nH]n2c(=O)c3c(nc2c1N=Nc1ccccc1)CCCC3 | 35.5 µM [falling, single point] | 25.1 µM [falling, single point]
18 | CCN(c1ncnc2c1cnn2-c1cccc(Cl)c1)C1CCCCC1 | 7.08 µM [rising, partial curve, poor fit] | 
19 | CCc1ccccc1N(C(C)=O)c1nc(CCl)cs1 | 0.00891 µM [falling, full curve] | 

Single records (already shown).
`CN(C)CCCNC(=O)C(=O)NCC1CCCO1` (stereo not drawn) in the list: AC50 [1]: 31.6 µM [rising, single point]; AC50 [2]: 35.5 µM [rising, single point]
`CCCn1c(-c2cccs2)nc2ccccc21` in the list: AC50 [1]: 0.0355 µM [rising, full curve, poor fit]; AC50 [2]: 0.0447 µM [rising, full curve, poor fit]
`CCN(c1ncnc2c1cnn2-c1cccc(Cl)c1)C1CCCCC1` in the list: AC50 [1]: 7.08 µM [rising, partial curve, poor fit]
`COc1ccc(CNC(=O)c2cc(-c3ccc(OC)c(OC)c3)on2)cc1` in the list: AC50 [1]: 35.5 µM [rising, single point]

Further entries:

Row | SMILES | AC50 [1] | AC50 [2]
20 | O=S(=O)(Nc1ccc(-c2nnc(SCc3ccc(Cl)cc3)o2)cc1)c1ccccc1 | 8.91 µM [rising, partial curve] | 
21 | O=C(Nc1ccc(F)cc1)c1nc[nH]c1C(=O)Nc1ccc([N+](=O)[O-])cc1 | 0.0631 µM [rising, full curve, poor fit] | 
22 | O=C(NNC(=S)Nc1ccccc1)NNC(=S)Nc1ccccc1 | 5.62 µM [rising, partial curve, poor fit] | 
23 | Cn1c(NC(=O)C[n+]2cc(-c3ccc(F)cc3)n3c2CCC3)cc(=O)n(C)c1=O | 15.8 µM [rising, single point] | 10 µM [rising, single point]
24 | CC(=O)C1=C(O)C(=O)N(c2cc(C(C)(C)C)on2)C1c1ccc(Br)cc1 (stereo not drawn) |  | 35.5 µM [rising, single point]
25 | COc1ccc2cnn(CCOc3cc(C)ccc3C(C)C)c(=O)c2c1OC | 22.4 µM [rising, partial curve] | 11.2 µM [rising, partial curve, poor fit]
26 | COc1ccc(OC)c(NC(=O)COC(=O)c2cc3c(s2)CCC3)c1 |  | 6.31 µM [rising, single point]
27 | COc1ccc(C(=O)Cc2ccc(OC)c(OC)c2)cc1 | 20 µM [rising, single point] | 20 µM [rising, single point]
28 | C=CCn1c(=S)[nH]c2sc3c(c2c1=O)CCC3 | 20 µM [rising, single point] | 
29 | CC(=O)c1cc(C#N)c(N(C)Cc2ccccc2)nc1C |  | 0.794 µM [falling, full curve, poor fit]
30 | COc1ccc(-c2cccc(NS(=O)(=O)c3cc(C)ccc3OC)c2)nn1 | 0.0501 µM [falling, full curve] | 0.0251 µM [falling, full curve, poor fit]
31 | CC[n+]1c(/C=C/N(C)c2ccccc2)oc2ccc(Cl)cc21 | 11.2 µM [rising, partial curve, poor fit] | 
32 | C[N+]1=C(/C=C/Nc2ccccc2Cl)C(C)(C)c2ccccc21 | 14.1 µM [rising, partial curve] | 11.2 µM [rising, partial curve]
33 | O=C(O)CCC(=O)Nc1cc(C(F)(F)F)cc(C(F)(F)F)c1 |  | 0.0501 µM [rising, full curve, poor fit]
34 | Cc1cc(C(=O)Nc2c(C)nn(Cc3c(Cl)cccc3Cl)c2C)no1 |  | 31.6 µM [falling, single point]
35 | COc1ccc(-c2ccc(SCC(=O)c3cccs3)nn2)cc1OC | 0.0141 µM [rising, full curve, poor fit] | 
36 | CN(C)CCCN(Cc1cc2cc3c(cc2[nH]c1=O)OCO3)C(=S)Nc1ccccc1 |  | 22.4 µM [falling, single point]
37 | Cc1cc[n+]2c3c(cccc13)CCC2 | 35.5 µM [rising, single point] | 
38 | Cc1ccc(NC(=O)CSCC(=O)Nc2ccc(N3CCOCC3)c(Cl)c2)cc1 | 0.562 µM [falling, full curve] | 

Row | SMILES | AC50 [1] | AC50 [2]
39 | CCOC(=O)c1cnc2ccc(C)cc2c1Nc1ccc(N2CCOCC2)cc1 | 35.5 µM [rising, single point] | 
40 | CCn1c(NC(=O)c2ccco2)c(-c2ccccc2Cl)c(=O)c2ccccc21 | 31.6 µM [rising, single point] | 
41 | BrC(=C\c1ccccc1)/C=N/N1CCN(c2ccccn2)CC1 | 11.2 µM [rising, single point] | 
42 | CCSc1nnc(-c2ccccc2SC)o1 | 8.91 µM [rising, partial curve] | 10 µM [rising, partial curve]
43 | COCCCNC(=O)C1CCCN(c2nn3cc(-c4ccc(C)cc4)nc3s2)C1 (stereo not drawn) | 14.1 µM [rising, single point] | 
44 | CCCCCn1ccc(=N)cc1 | 22.4 µM [rising, single point] | 12.6 µM [rising, partial curve]
45 | CSc1nnc(C)c(/C=C/Nc2ccc(C)cc2)n1 | 12.6 µM [rising, partial curve] | 17.8 µM [rising, single point]
46 | O=C(Nc1ccc(SC(F)F)cc1)c1ccc2nccnc2c1 | 15.8 µM [rising, partial curve] | 
47 | CCc1ccc(NC(=O)N2CCN(C(=O)c3nsc4ccccc34)CC2)cc1 |  | 0.501 µM [rising, single point]
48 | O=c1c(-c2ccccc2)nc2cnc(Nc3ccccc3)nc2n1Cc1cccs1 | 12.6 µM [falling, single point] | 17.8 µM [falling, partial curve, poor fit]
49 | CC1(C)CC(=O)C2=C(C1)OC(N)=C(C#N)C21C(=O)N(CN2CCOCC2)c2ccccc21 (stereo not drawn) | 15.8 µM [rising, single point] | 17.8 µM [rising, single point]
50 | COc1cc(Cl)c(C)cc1NC(=O)c1cnc2c(-c3cccc(C)c3)c(C)nn2c1C | 0.00447 µM [falling, full curve, poor fit] | 
51 | COCCOc1nc2c(c(=O)n(C)c(=O)n2C)n1Cc1cccc(OC)c1 | 14.1 µM [rising, partial curve] | 17.8 µM [rising, partial curve, poor fit]
52 | COc1cc(S(C)=O)ccc1-c1nc2ncccc2[nH]1 (stereo not drawn) | 0.224 µM [rising, partial curve, poor fit] | 
53 | CCOC(=O)c1noc2nc(C)n(Cc3ccc([N+](=O)[O-])cc3)c(=O)c12 | 6.31 µM [falling, partial curve, poor fit] | 0.158 µM [falling, full curve]
54 | NN/C(=C\[N+](=O)[O-])Nc1ccccc1 | 12.6 µM [falling, single point] | 28.2 µM [falling, single point]
55 | CCn1c(=O)cc(SCC(=O)N2CCN(c3ccccc3F)CC2)c2ccccc21 | 1.12 µM [rising, full curve] | 1 µM [rising, full curve]
56 | O=C(NCc1cccc(Cl)c1)C1CCCN(c2ncnc3onc(-c4ccc(F)cc4)c23)C1 (stereo not drawn) |  | 8.91 µM [falling, partial curve, poor fit]
